Laboratory results as given in article PMC11579010.
No constants are given. Whether binding was seen depends on the method and setting. Binding seen in cells or lysates may run through a third protein. These calls come from enrichment with a bait or labelling near it, and not all partners need be listed.

Chains of the proteins cited; added tags and fusions are not shown. Residues count along the entry.
UniProt Q08345, residues 19-913: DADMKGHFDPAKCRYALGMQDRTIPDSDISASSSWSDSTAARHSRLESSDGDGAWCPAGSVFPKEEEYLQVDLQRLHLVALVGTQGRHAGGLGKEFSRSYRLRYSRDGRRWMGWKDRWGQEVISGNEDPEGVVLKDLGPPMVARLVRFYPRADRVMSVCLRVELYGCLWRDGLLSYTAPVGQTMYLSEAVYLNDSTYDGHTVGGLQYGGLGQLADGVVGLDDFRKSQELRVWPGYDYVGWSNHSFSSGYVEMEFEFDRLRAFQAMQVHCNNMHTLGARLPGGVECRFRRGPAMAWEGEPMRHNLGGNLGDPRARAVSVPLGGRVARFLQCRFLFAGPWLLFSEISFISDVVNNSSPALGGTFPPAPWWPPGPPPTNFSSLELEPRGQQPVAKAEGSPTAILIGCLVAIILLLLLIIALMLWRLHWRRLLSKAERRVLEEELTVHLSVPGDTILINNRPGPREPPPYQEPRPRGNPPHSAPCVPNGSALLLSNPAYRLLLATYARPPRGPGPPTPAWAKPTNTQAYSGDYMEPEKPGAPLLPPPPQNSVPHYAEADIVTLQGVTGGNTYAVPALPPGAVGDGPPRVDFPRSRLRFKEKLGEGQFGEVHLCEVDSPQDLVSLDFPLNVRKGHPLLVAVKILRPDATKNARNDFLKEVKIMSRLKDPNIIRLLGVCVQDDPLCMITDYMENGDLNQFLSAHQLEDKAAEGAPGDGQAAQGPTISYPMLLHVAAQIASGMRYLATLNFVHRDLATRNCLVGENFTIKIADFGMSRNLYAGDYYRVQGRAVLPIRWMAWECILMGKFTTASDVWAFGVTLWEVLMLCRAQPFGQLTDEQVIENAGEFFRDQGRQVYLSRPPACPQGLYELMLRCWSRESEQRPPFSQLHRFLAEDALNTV
UniProt P62993: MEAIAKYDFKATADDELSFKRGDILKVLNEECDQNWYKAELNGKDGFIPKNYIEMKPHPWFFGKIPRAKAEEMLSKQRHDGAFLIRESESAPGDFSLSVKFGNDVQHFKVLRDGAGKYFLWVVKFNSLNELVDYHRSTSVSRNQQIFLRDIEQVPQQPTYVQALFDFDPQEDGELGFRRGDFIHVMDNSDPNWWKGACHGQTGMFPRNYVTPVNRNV

Molecular target: Discoidin domain receptor 1 (DDR1), in cervical cancer cells (human (in SiHa cervical cancer cells; endogenous or oeDDR1 not stated)) (UniProt Q08345)
Assay: affinity purification with mass spectrometry; co-IP of DDR1 (IgG as control) from cervical cancer cells, outcome subjected to mass spectrometry; hits crossed with HitPredict

Growth factor receptor bound protein 2 (GRB2), in cervical cancer cells (from UniProt P62993 1-217)
binding: binds

B1: SHC Adaptor Protein 1 (SHC1), in cervical cancer cells (protein, UniProt P29353 1-583)
chain: MDLLPPKPKYNPLRNESLSSLEEGASGSTPPEELPSPSASSLGPILPPLPGDDSPTTLCSFFPRMSNLRLANPAGGRPGSKGEPGRAADDGEGIVGAAMPDSGPLPLLQDMNKLSGGGGRRTRVEGGQLGGEEWTRHGSFVNKPTRGWLHPNDKVMGPGVSYLVRYMGCVEVLQSMRALDFNTRTQVTREAISLVCEAVPGAKGATRRRKPCSRPLSSILGRSNLKFAGMPITLTVSTSSLNLMAADCKQIIANHHMQSISFASGGDPDTAEYVAYVAKDPVNQRACHILECPEGLAQDVISTIGQAFELRFKQYLRNPPKLVTPHDRMAGFDGSAWDEEEEEPPDHQYYNDFPGKEPPLGGVVDMRLREGAAPGAARPTAPNAQTPSHLGATLPVGQPVGGDPEVRKQMPPPPPCPGRELFDDPSYVNVQNLDKARQAVGGAGPPNPAINGSAPRDLFDMKPFEDALRVPPPPQSVSMAEQLRGEPWFHGKLSRREAEALLQLNGDFLVRESTTTPGQYVLTGLQSGQPKHLLLVDPEGVVRTKDHRFESVSHLISYHMDNHLPIISAGSELCLQQPVERKL
binding: binds
